Assay [1] deals with MDCK cysts. The note with it: read-out: IC50 of inhibition of cystic growth; MDCK cysts in 3D collagen I gel, 96 hours incubation, Alamar Blue.
The subject of assay [2] is jck mouse model of PKD.
The subject of assay [3] is cpk model of PKD.
Assay [4] concerns MDCK cysts. Nature of the assay: cells. The note with it: Canis lupus familiaris, 96 h, read-out: IC50 of inhibition of cystic growth.

Like-named read-outs stand apart in the source and are kept apart here.

`CC[C@@H](CO)Nc1nc(NCc2ccccc2)c2ncn(C(C)C)c2n1` [S-Roscovitine]: the IC50 in assay [1] is roughly 30 µM.
`CC[C@H](CO)Nc1nc(NCc2ccccc2)c2ncn(C(C)C)c2n1` [Roscovitine, 6-benzylamino-2-(R)-[(1-ethyl-2-hydroxy)ethylamino]-9-isopropylpurine]: the K/BW ratio was 3.49 ± 0.42 % in assay [2] (jck female, 150 mg/kg IP daily, continuous 5 W); 6.55 ± 1.06 % in assay [2] (jck male, 50 mg/kg IP daily, continuous 5 W); 4.17 ± 0.26 % in assay [2] (jck male, 150 mg/kg IP daily, continuous 5 W (Table 2)); 4.23 ± 0.53 % in assay [2] (jck male, 150 mg/kg, daily dosing for 5 weeks (Table 2a)); 4.56 ± 0.62 % in assay [2] (jck male, 150 mg/kg, pulse treatment 5 W (1/1): 1 week on, 1 week off for 5 weeks); 4.71 ± 0.69 % in assay [2] (jck male, 150 mg/kg, pulse treatment 5 W (3/2): 3 weeks on, 2 weeks off). Also, in assay [3] (cpk mice, 100 mg/kg IP daily, day 7 till day 21), the K/BW ratio is 19.25 ± 3.17 %. For the same compound, the “Kidney to body weight ratio and cystic volumes” value in assay [2] (jck mice, 50 and 150 mg/kg) was “reduction of the kidney to body weight ratio and cystic volumes in a dose dependent manner”. Further, in assay [2] (jck/jck females), the “PKD in jck/jck females” value was “inhibited PKD”. Also, the “PKD in cpk mice” value in assay [3] (100 mg/kg daily from day 7 till day 21) was “reduction of PKD”. The IC50 in assay [4] was roughly 20 µM.

For orientation: IC50 means the midpoint of a concentration-inhibition curve.

Values taken from US20140249165A1, “PURINE DERIVATIVES FOR TREATMENT OF CYSTIC DISEASES” (Genzyme Corporation, priority 2006, published 2014).
